These results are taken from the supplement of paper PMC11732987, “Enantioselective OTUD7B fragment discovery through chemoproteomics screening and high-throughput optimisation” (Communications Chemistry, 2025).

Amino acid sequences for entries named in this document (tags omitted). A change or cut given only in a name is not applied to a line headed by its entry. Residues count along the entry.
UniProt Q12931: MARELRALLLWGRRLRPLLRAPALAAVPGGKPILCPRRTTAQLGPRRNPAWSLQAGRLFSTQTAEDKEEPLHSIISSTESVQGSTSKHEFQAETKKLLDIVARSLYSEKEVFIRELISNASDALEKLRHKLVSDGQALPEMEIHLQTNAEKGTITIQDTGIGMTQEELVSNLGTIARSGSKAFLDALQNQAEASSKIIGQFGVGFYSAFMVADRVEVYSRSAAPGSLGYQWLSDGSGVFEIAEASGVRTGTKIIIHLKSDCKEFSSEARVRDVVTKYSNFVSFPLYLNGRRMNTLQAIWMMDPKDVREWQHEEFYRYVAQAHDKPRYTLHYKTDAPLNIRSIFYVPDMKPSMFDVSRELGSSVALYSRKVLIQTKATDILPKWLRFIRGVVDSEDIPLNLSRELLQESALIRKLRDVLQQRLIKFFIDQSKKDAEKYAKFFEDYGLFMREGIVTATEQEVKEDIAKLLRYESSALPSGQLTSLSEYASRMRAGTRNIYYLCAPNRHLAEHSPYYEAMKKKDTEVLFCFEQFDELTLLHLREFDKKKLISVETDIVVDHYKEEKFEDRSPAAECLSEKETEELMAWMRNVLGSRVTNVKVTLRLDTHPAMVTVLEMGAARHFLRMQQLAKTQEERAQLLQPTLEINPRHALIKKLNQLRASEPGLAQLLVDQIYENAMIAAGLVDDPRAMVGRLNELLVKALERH
UniProt Q9Y490: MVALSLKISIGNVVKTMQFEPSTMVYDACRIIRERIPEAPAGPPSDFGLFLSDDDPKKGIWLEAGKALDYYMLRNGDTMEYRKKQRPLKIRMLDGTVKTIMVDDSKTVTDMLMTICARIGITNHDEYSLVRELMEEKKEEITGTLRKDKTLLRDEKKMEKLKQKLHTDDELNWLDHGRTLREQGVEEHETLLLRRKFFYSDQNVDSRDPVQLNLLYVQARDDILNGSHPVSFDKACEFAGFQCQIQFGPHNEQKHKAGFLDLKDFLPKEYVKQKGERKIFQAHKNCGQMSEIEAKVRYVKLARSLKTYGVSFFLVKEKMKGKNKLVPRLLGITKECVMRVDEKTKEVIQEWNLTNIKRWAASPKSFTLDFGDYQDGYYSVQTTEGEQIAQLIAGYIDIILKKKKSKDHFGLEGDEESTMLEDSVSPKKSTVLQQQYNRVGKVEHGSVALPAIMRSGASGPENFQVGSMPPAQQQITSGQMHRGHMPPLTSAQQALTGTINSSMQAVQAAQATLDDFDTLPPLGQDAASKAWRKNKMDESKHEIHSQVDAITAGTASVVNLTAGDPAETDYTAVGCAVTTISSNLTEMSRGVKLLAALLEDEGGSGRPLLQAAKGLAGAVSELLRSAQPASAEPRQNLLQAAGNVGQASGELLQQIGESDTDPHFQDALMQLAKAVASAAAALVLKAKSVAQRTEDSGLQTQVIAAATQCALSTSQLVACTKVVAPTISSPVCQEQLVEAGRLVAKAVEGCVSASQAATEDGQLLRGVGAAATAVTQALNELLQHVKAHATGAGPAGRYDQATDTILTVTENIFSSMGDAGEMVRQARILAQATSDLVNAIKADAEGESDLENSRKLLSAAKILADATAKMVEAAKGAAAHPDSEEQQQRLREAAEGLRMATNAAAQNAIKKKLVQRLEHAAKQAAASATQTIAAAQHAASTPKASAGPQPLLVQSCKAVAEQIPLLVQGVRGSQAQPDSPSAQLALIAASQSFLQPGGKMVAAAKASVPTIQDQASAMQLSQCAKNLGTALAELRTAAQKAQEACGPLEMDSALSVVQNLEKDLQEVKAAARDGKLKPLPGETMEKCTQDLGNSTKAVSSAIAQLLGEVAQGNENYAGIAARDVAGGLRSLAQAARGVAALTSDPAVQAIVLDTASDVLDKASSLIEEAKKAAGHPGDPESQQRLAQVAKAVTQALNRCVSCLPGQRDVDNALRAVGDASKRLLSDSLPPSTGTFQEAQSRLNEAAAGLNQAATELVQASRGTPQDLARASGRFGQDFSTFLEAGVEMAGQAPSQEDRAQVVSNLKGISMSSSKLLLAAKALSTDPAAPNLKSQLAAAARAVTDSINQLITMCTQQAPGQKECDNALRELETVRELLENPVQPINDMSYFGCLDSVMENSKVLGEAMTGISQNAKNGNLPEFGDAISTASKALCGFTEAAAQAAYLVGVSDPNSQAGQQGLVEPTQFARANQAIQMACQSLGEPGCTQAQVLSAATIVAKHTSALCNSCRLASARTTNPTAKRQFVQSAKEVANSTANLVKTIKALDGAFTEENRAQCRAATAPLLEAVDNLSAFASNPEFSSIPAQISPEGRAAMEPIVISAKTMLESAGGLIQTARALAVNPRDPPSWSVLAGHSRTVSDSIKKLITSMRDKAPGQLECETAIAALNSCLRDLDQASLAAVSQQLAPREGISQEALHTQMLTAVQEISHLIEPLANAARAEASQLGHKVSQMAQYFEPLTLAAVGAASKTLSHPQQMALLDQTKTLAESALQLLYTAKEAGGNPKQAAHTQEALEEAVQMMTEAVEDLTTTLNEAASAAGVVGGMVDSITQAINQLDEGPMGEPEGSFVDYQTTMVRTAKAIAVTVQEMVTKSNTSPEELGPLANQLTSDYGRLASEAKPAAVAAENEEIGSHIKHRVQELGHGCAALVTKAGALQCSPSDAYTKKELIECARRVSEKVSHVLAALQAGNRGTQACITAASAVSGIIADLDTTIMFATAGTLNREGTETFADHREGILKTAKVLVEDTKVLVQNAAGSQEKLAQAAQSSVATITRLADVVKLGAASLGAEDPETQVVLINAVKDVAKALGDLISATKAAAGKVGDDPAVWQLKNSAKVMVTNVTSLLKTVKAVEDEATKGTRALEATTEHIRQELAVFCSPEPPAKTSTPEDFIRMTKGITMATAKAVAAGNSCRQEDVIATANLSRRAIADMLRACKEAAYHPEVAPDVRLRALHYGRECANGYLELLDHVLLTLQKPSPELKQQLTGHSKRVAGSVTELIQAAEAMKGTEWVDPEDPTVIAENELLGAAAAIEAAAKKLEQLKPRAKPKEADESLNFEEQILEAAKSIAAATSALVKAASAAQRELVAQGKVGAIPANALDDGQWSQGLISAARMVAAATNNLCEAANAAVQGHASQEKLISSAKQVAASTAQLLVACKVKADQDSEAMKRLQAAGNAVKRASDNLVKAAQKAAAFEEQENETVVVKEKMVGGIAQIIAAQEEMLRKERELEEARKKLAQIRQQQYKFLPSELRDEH
UniProt Q9Y4K3, 366-388: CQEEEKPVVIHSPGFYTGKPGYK
UniProt Q92973: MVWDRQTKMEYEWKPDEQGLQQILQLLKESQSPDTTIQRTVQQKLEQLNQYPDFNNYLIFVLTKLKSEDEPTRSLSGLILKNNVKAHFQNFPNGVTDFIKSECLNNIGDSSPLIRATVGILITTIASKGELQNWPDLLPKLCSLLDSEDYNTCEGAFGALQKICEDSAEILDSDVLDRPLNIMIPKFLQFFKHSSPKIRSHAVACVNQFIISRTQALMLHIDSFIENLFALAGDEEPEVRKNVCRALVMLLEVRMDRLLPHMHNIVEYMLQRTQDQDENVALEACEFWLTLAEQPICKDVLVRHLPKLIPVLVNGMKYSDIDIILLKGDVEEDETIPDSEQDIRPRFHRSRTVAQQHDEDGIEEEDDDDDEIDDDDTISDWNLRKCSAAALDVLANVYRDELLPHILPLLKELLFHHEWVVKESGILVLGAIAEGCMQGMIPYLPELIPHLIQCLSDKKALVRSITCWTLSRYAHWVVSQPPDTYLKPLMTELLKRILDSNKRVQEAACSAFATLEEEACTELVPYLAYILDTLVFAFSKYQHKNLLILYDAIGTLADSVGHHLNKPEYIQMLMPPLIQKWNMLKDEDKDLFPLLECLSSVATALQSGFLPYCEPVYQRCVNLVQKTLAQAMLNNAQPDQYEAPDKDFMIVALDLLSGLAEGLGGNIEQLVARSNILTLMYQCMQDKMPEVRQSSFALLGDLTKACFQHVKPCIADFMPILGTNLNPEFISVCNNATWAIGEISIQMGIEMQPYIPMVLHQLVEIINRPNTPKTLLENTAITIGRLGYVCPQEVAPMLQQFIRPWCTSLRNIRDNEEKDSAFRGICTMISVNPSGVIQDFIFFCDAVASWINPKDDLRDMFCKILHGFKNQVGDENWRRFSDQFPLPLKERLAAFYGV
UniProt O94826, 577-599: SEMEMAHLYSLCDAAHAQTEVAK
UniProt Q6Q0C0: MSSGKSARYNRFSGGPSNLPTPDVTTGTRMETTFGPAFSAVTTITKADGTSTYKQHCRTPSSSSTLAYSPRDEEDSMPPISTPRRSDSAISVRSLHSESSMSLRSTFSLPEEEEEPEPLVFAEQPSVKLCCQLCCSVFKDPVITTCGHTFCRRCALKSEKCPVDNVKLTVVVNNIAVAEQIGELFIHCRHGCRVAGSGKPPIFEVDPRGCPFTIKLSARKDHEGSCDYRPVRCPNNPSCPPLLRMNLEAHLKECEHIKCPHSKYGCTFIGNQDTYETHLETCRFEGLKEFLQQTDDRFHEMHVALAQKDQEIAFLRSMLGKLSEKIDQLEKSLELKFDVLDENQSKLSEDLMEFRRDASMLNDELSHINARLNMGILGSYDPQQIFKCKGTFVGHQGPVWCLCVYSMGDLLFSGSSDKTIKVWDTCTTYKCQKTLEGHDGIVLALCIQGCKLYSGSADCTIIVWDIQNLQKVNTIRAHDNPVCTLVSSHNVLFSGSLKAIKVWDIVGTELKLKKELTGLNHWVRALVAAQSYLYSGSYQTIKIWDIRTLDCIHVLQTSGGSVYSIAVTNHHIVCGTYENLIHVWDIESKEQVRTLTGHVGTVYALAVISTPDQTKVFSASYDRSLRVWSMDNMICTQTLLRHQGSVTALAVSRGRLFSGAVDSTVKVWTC
UniProt Q9NYL9, 149-169: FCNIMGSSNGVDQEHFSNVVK
UniProt Q9Y4G6, 1008-1027: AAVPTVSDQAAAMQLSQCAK
UniProt Q96Q05: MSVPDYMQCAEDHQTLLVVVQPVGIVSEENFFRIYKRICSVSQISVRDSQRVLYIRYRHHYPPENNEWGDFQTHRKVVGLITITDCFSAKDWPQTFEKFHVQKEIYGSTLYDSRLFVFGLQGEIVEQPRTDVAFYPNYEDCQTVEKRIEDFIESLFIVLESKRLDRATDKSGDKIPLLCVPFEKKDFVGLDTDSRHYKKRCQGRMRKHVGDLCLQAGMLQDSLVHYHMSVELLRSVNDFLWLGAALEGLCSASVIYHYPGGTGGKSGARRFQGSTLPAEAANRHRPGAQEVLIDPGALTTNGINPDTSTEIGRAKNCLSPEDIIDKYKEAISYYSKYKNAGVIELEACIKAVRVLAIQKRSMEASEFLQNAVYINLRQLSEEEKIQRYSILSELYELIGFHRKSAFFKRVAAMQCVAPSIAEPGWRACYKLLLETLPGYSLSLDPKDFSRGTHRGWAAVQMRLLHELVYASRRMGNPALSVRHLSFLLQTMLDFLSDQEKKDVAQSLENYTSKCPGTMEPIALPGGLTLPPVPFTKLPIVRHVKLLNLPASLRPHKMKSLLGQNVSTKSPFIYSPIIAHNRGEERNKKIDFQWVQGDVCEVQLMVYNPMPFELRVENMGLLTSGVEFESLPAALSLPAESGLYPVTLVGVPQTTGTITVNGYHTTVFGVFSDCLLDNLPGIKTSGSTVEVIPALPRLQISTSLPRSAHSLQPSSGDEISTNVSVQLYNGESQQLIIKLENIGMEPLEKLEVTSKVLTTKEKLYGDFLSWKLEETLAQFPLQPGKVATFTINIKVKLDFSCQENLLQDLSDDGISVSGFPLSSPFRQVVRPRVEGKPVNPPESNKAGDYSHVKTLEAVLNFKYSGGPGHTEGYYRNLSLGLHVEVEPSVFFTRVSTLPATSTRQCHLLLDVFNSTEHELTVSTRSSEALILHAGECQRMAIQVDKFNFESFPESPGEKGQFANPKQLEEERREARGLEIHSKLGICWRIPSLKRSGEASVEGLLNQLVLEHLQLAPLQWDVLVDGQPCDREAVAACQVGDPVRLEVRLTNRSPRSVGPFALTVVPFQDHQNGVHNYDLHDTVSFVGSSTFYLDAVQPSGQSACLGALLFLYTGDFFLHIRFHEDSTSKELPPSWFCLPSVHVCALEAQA
UniProt Q12933: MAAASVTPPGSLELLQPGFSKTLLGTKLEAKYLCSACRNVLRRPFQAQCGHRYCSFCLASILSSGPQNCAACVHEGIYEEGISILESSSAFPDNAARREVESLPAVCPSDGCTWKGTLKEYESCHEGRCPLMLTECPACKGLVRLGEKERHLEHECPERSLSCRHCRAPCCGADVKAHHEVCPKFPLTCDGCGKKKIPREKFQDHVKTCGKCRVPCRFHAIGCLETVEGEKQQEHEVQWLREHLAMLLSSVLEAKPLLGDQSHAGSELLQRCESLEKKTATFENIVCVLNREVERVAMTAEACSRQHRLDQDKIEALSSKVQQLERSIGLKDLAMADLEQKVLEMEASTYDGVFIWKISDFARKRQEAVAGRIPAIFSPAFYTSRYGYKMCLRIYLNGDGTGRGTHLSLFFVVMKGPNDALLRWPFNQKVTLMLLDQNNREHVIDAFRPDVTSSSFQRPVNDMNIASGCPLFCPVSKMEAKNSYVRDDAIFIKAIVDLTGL

This is one part of the list. The data scatter; read single values as rough.

Compound in test [1]: ClCC(=O)N[C@@H]1CCCc2ccccc12
Nature of the test: log2 mean competition ratio of IA-DTB cysteine labelling (DMSO/compound) (log2 ratio); higher = stronger cysteine engagement by compound. The note with it: treatment time: 4 h, cell line lysate: HEK293T. The procedure:
(§1)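 IA-DTB competitive cysteine chemoproteomics in HEK293T RIPA lysate. Lysates were treated with compound 29 or 30 at 50 or 200 µM for 4 h, then IA-DTB (500 µM, 1 h), trypsin-digested, NeutrAvidin-enriched and analysed by diaPASEF. Competition ratio = intensity DMSO / intensity compound (n=4 treated, n=64 DMSO); binding: mean log2 CR ≥ 1 and p ≤ 0.05 plus QC filters. Target is the cysteine site.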

Compound in test [2]: ClCC(=O)N[C@H]1CCCc2ccccc12
The test is described as above. The note with it: treatment time: 4 h, cell line lysate: HEK293T. The procedure: as §1

For TRAP1 C261 (UniProt Q12931), the “log2 mean competition ratio” value was -0.138 in test [1] (50 µM), -0.079 in test [1] (200 µM), -0.136 in test [2] (50 µM) and -0.0225 in test [2] (200 µM).

Turning to TNPO2 C93 (UniProt O14787), the “log2 mean competition ratio” value in test [1] (50 µM) is -0.349; in test [1] (200 µM), 0.103; in test [2] (50 µM) it was -0.138; in test [2] (200 µM), 0.147.

On to TRIM9 C356, for which the “log2 mean competition ratio” value is -0.156 in test [1] (50 µM), -0.193 in test [1] (200 µM), -0.0426 in test [2] (50 µM) and -0.25 in test [2] (200 µM).

TOB2 C120: the “log2 mean competition ratio” value is -0.322 in test [1] (50 µM), -0.0553 in test [1] (200 µM), -0.186 in test [2] (50 µM) and -0.0682 in test [2] (200 µM).

Turning to TNRC18 C475 (UniProt O15417), the “log2 mean competition ratio” value is 0.127 in test [1] (50 µM), -0.169 in test [1] (200 µM), 0.251 in test [2] (50 µM) and -0.0815 in test [2] (200 µM).

TMEM175 C32 (UniProt Q9BSA9): the “log2 mean competition ratio” value is 0.256 in test [1] (50 µM), -0.0172 in test [1] (200 µM), -0.143 in test [2] (50 µM) and 0.131 in test [2] (200 µM).

For the target TLN1 C286 (UniProt Q9Y490), the “log2 mean competition ratio” value in test [1] (50 µM) is -0.00166; in test [1] (200 µM), -0.136; in test [2] (50 µM), -0.444; in test [2] (200 µM) it was -0.206.

Turning to TRAP1 C573 (UniProt Q12931), the “log2 mean competition ratio” value is -0.155 in test [1] (50 µM), -0.159 in test [1] (200 µM), -0.128 in test [2] (50 µM) and -0.269 in test [2] (200 µM).

Take TP53 C124: the “log2 mean competition ratio” value is 0.0412 in test [1] (50 µM), -0.15 in test [1] (200 µM), -0.146 in test [2] (50 µM) and -0.113 in test [2] (200 µM).

Turning to TRAF6 C366 (UniProt Q9Y4K3), the “log2 mean competition ratio” value in test [1] (50 µM) was -0.207; in test [1] (200 µM), -0.242; in test [2] (50 µM), 0.0624; in test [2] (200 µM) it was -0.252.

Turning to TNPO2 C609 (UniProt O14787), the “log2 mean competition ratio” value in test [1] (50 µM) is 0.0469; in test [1] (200 µM), -0.233; in test [2] (50 µM), 0.196; in test [2] (200 µM), -0.164.

TP53 C141: the “log2 mean competition ratio” value is -0.194 in test [1] (50 µM), -0.183 in test [1] (200 µM), 0.464 in test [2] (50 µM) and -0.00218 in test [2] (200 µM).

TPGS2 C150: the “log2 mean competition ratio” value is 0.0695 in test [1] (50 µM), -0.198 in test [1] (200 µM), 0.219 in test [2] (50 µM) and 0.0288 in test [2] (200 µM).

As for TNPO1 C103 (UniProt Q92973), the “log2 mean competition ratio” value in test [1] (50 µM) is -0.218; in test [1] (200 µM), -0.0431; in test [2] (50 µM), 0.216; in test [2] (200 µM), -0.00102.

Take TNPO1 C862 (UniProt Q92973): the “log2 mean competition ratio” value in test [1] (50 µM) was -0.197; in test [1] (200 µM), 0.194; in test [2] (50 µM), -0.0815; in test [2] (200 µM), 0.175.

In the case of TMEM259 C97 (UniProt Q4ZIN3), the “log2 mean competition ratio” value in test [1] (50 µM) is 0.338; in test [1] (200 µM), -0.177; in test [2] (50 µM), 0.401; in test [2] (200 µM), -0.236.

For the target TOMM70 C588 (UniProt O94826), the “log2 mean competition ratio” value in test [1] (50 µM) was -0.0309; in test [1] (200 µM), -0.0193; in test [2] (50 µM), -0.217; in test [2] (200 µM), -0.159.

On to TRAPPC12 C731 (UniProt Q8WVT3), for which the “log2 mean competition ratio” value is -0.086 in test [1] (50 µM), 0.0183 in test [1] (200 µM), -0.27 in test [2] (50 µM) and 0.0631 in test [2] (200 µM).

As for TRIM38 C133 (UniProt O00635), the “log2 mean competition ratio” value in test [1] (50 µM) is -0.216; in test [1] (200 µM), 0.136; in test [2] (50 µM), -0.27; in test [2] (200 µM), -0.00106.

Consider TNFAIP8 C186 (UniProt O95379), for which the “log2 mean competition ratio” value was -0.315 in test [1] (50 µM), -0.055 in test [1] (200 µM), 0.015 in test [2] (50 µM) and -0.00886 in test [2] (200 µM).

Take TPI1 C218 (UniProt P60174): the “log2 mean competition ratio” value was -0.136 in test [1] (50 µM), 0.244 in test [1] (200 µM), -0.245 in test [2] (50 µM) and 0.218 in test [2] (200 µM).

In the case of TRAF7 C226 (UniProt Q6Q0C0), the “log2 mean competition ratio” value in test [1] (50 µM) is -0.00359; in test [1] (200 µM) it was 0.072; in test [2] (50 µM) it was -0.168; in test [2] (200 µM) it was -0.046.

As for TMEM131L C1082, the “log2 mean competition ratio” value in test [1] (50 µM) was 0.353; in test [1] (200 µM), -0.0391; in test [2] (50 µM) it was 0.268; in test [2] (200 µM) it was 0.0631.

Regarding TOP2B C271 (UniProt Q02880), the “log2 mean competition ratio” value in test [1] (50 µM) stood at 0.251; in test [1] (200 µM) it was 0.196; in test [2] (50 µM), 0.516; in test [2] (200 µM), 0.238.

With TRAK1 C698, the “log2 mean competition ratio” value was 0.266 in test [1] (50 µM), 0.0542 in test [1] (200 µM), 0.164 in test [2] (50 µM) and -0.095 in test [2] (200 µM).

As to TMOD3 C150 (UniProt Q9NYL9), the “log2 mean competition ratio” value is 0.577 in test [1] (50 µM), -0.34 in test [1] (200 µM), -0.143 in test [2] (50 µM) and -0.0905 in test [2] (200 µM).

Consider TMEM129 C121, for which the “log2 mean competition ratio” value in test [1] (50 µM) was 0.372; in test [1] (200 µM), -0.134; in test [2] (50 µM), 0.401; in test [2] (200 µM), -0.162.

On to TLN2 C1025 (UniProt Q9Y4G6), for which the “log2 mean competition ratio” value in test [1] (50 µM) is 0.0193; in test [1] (200 µM) it was 0.0154; in test [2] (50 µM), 0.399; in test [2] (200 µM) it was 0.0197.

Consider TIMM29 C46 (UniProt Q9BSF4), for which the “log2 mean competition ratio” value in test [1] (50 µM) was -0.295; in test [1] (200 µM), 0.0274; in test [2] (50 µM), -0.274; in test [2] (200 µM) it was 0.203.

TRAPPC9 C935 (UniProt Q96Q05): the “log2 mean competition ratio” value in test [1] (50 µM) is -0.255; in test [1] (200 µM) it was 0.0359; in test [2] (50 µM) it was -0.326; in test [2] (200 µM), -0.249.

As to TRAF2 C124 (UniProt Q12933), the “log2 mean competition ratio” value in test [1] (50 µM) was -0.12; in test [1] (200 µM) it was -0.144; in test [2] (50 µM) it was -0.136; in test [2] (200 µM), 0.0356.
